For the assay, the target named is Trypanothione reductase (Trypanosoma cruzi, UniProt P28593). Nature of the assay: Inhibition of Trypanosoma cruzi trypanothione reductase expressed in Escherichia coli BL21 (DE3) pre-incubated for 30 mins using TS2 substrate in presence of NADPH by colorimetric microplate assay. In a few lines:
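Recombinant T. cruzi TR expressed in E. coli BL21DE3 and affinity-purified. Assay: TcTR 5 m-unit, 40 mM HEPES pH 7.5, 0.15 mM NADPH, 1 mM EDTA, 1 µM TS2, compounds in DMSO (final 1% DMSO control). Pre-incubated 30 min at 27°C, then DTNB added, and A412 read every 5 min for 30 min.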

Amino acid sequences for entries named in this document (tags omitted). A change or cut given only in a name is not applied to a line headed by its entry.
UniProt P28593: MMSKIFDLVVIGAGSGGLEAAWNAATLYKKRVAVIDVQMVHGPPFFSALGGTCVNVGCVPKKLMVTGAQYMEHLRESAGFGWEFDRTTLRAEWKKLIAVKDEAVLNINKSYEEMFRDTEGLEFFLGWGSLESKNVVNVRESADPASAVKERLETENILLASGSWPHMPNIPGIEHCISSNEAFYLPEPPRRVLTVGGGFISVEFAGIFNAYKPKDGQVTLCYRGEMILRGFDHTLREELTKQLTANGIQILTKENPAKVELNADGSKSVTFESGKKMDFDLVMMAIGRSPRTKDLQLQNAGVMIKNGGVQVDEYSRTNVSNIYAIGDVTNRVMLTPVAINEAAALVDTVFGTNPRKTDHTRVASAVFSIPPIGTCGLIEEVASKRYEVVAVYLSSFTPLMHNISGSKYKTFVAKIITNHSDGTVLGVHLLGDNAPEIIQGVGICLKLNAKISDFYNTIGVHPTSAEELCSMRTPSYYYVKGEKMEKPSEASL

With `CN(C)CCCN1c2ccccc2CCc2ccc(Cl)cc21` [CLOMIPRAMINE], the IC50 amounted to 15.2 µM.

In general, IC50 refers to the concentration that gives 50% inhibition.

For the origin of these results see ChEMBL document CHEMBL4190349, “Synthesis and 2D-QSAR studies of neolignan-based diaryl-tetrahydrofuran and -furan analogues with remarkable activity against Trypanosoma cruzi and assessment of the trypanothione reductase activity” (Eur J Med Chem, 2017).
